Data taken from article PMC8560763, “Roles of metal ions in the selective inhibition of oncogenic variants of isocitrate dehydrogenase 1” (Communications Biology, 2021).

Test: ITC, MgCl2 binding to 2OG
Conditions: MgCl2 (5 mM), 2OG (500 µM), 50 mM Tris-HCl, pH 7.5

Which “binding to 2OG” value does the source give for `[Cl-].[Cl-].[Mg+2]` [MgCl2] here?
Its value is “No binding is detected”.

And the “binding to 2OG” value (listed as Mg^2+)?
The value was “no binding was observed”.
